Laboratory results as given in PubChem BioAssay AID720504 (National Center for Advancing Translational Sciences (NCATS), 2013).
“And” between values parts separate entries of the source, which are not always exact repeats. Equal entries are not always repeated. In all, about 360,000 compounds went through this assay and about 10,000 (2.8%) were called active. The inconclusive results got no clear call from the source; some entries with a clear call stand among them for comparison. Calls follow the shape of the dose curve; as a rule, active = well fitted inhibition curve with a large enough effect; inconclusive = small, poorly fitted or top-dose-only effect; inactive = flat fitted curve, though single readings scatter. Potencies of inconclusive entries are doubtful fits and often do not repeat.

The chains behind the UniProt entries cited, without tags or fusion partners.
UniProt P53350, whole entry, looked up: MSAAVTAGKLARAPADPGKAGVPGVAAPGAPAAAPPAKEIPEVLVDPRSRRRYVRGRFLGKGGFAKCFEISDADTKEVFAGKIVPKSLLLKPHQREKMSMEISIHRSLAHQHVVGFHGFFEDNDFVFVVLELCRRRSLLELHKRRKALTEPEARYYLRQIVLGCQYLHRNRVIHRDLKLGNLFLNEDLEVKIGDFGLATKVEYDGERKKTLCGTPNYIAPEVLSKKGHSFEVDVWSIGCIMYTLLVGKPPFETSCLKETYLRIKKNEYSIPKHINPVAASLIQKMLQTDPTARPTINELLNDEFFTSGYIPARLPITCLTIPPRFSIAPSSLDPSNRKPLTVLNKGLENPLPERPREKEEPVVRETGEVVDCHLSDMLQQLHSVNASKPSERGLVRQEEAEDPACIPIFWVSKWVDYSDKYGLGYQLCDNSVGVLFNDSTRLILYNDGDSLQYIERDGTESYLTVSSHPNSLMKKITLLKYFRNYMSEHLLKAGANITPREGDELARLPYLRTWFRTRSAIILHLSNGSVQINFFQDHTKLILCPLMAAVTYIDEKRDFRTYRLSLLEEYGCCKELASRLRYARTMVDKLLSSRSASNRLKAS

These compounds were tested against Serine/threonine-protein kinase PLK1 (Homo sapiens) (UniProt P53350) (assay: qHTS for Inhibitors of PLK1-PDB (polo-like kinase 1 - polo-box domain): Primary Screen). Details: Plk1 PBD binding of FITC phosphopeptide, fluorescence polarization.
% is scaled to controls: 0 for no effect and ±100 for the full control effect; potency is read from the fitted curve at half-maximal effect.
Also: nearly all actives have a fitted effect of over 65% in size.
For max response, negative = inhibition in this document: series mostly up to about 57 µM.

Row | SMILES | max response, negative = inhibition | Potency
1 | COc1cc(NC(=O)CCCNC(=O)Cn2cnc3sc4c(c3c2=O)CCCC4)cc(OC)c1OC | inactive: -11.1% | 
2 | COc1cccc(NC(=O)Nc2cc(C(=O)NC(C)C)ccc2N2CC3CC(C2)c2cccc(=O)n2C3)c1 (centres undefined) |  | active: 3.77 µM
3 | Cc1ccc(C(=O)NCc2ccco2)cc1Br | inactive: -10.7% | 
4 | C=CCOC(=O)C1=C[C@H](c2cn(C(C)=O)c3ccccc23)C[C@H](OCc2ccc(CO)cc2)O1 | inactive: -20.9% | 
5 | COCC(=O)N1CCC(Oc2ccc(C(=O)NCc3cc(C(C)C)no3)cc2)CC1 |  | inconclusive: 21.2 µM [inhibitor, single point]
6 | Cc1ccc(C(C)C)c(OCC(=O)c2c(O)c3ccccc3oc2=O)c1 |  | inconclusive: 26.7 µM [inhibitor, partial curve]
7 | Cn1cccc1C(=O)Nc1nc(-c2ccccn2)cs1 |  | inconclusive: 26.7 µM [inhibitor, partial curve]
8 | CON(C)C(=O)CCN(C(=O)OC(C)(C)C)c1ccccc1 | inconclusive: -32.6% [inhibitor] | 
9 | O=C(O)CN1C(=O)C2C3CC(C2C1=O)C1C(c2ccccc2)c2sc(=O)[nH]c2SC31 (centres undefined) |  | inconclusive: 21.2 µM [inhibitor, single point]
10 | CCCc1cc(=O)[nH]c(SCC(=O)Nc2nonc2N)n1 |  | inconclusive: 37.7 µM [inhibitor, single point]
11 | COC(=O)c1ccccc1NCCO | inactive: 0.103% | 
12 | NC(=S)N/N=C/c1c[nH]c2ccccc12 |  | inconclusive: 42.3 µM [inhibitor, partial curve, poor fit]
13 | Cc1c(Cl)cccc1NC(=S)N(CCN(C)C)C(C)c1ccco1 (centres undefined) | inactive: -0.406% | 
14 | O=C(COC(=O)c1ccc([N+](=O)[O-])s1)NC(c1ccccc1)c1ccccc1 | inactive: -3.18% | 
15 | C#CCOCCOCCOCCNc1nc(N2CCN(C(=O)[C@H](CCC(=O)O)n3cc(C(N)Cc4ccc(O)cc4)nn3)CC2)nc(N2CCN(C(=O)[C@H](CCC(=O)O)n3cc(C(N)[C@H](C)CC)nn3)CC2)n1 (some centres undefined) | inactive: 0.415% | 
16 | CC1=C(C(=O)OC(C)C)C2(O)C(=O)c3ccccc3C2(O)N1 (centres undefined) |  | inconclusive: 33.6 µM [inhibitor, single point]
17 | COc1ccc([C@@H]2CC=C(C(=O)O)[C@H](c3ccccc3F)N2S(=O)(=O)c2ccccc2C)cc1 | inactive: 1.83% | 
18 | CCn1c(=O)cc(OCC(=O)N2CCCC2)c2ccccc21 |  | active: 26.7 µM
19 | CCN(C(=O)c1ccnn1C)c1ccccc1 |  | inconclusive: 13.4 µM [inhibitor, partial curve]
20 | C=C(C)C(=O)Nc1cccc(C2=NOC3(C2)C[C@@H](C(N)=O)N(C(=O)c2cc([N+](=O)[O-])cc([N+](=O)[O-])c2C)C3)c1 (some centres undefined) |  | inconclusive: 29.9 µM [inhibitor, single point]
21 | O=C(N1CCCC1)N1CCN(S(=O)(=O)c2ccccc2)CC1 | inactive: 5.48% | 
22 | CSc1ccc(C(=O)C2CCCN(Cc3cccn3-c3cccnc3)C2)cc1 (centres undefined) | inactive: -7.72% | 
23 | O=C(/C=C/c1cc(Br)ccc1O)c1ccco1 |  | active: 26.7 µM
24 | CN(C(=O)c1ccc(N2CCOCC2)c([N+](=O)[O-])c1)C1CCCCC1 | inactive: -7% | 
25 | COC(=O)C1=CN(Cc2cccs2)C=C(C(=O)OC)C1c1cccc(O)c1 |  | inconclusive: 23.8 µM [inhibitor, single point]

Row | SMILES | max response, negative = inhibition | Potency
26 | Cc1ccc(-c2ccc(/C=N/NC(N)=S)o2)cc1 |  | active: 5.97 µM
27 | Cc1nnc(NC(=O)CSc2nnc(CNC(=O)c3ccccc3F)n2C(C)C)s1 |  | inconclusive: 29.9 µM [inhibitor, single point]
28 | Cc1cc(-c2nnc(SCC(=O)Nc3ccccn3)o2)no1 |  | inconclusive: 21.2 µM [inhibitor, partial curve, poor fit]
29 | COC(=O)c1ccc(Sc2ccc(F)cc2)c(N)c1 |  | inconclusive: 26.7 µM [inhibitor, partial curve]
30 | NS(=O)(=O)c1ccccc1 | inactive: -17.8% | 
31 | N#Cc1c(NC(=O)CSc2nc(-c3ccccc3)cc(C(F)(F)F)n2)sc2c1CCC2 |  | inconclusive: 18.9 µM [inhibitor, partial curve]
32 | Cc1cccn2c(CN3CCCC(c4ccccc4)C3)c(C(=O)N3CCOCC3)nc12 (centres undefined) | inactive: -5.75% | 
33 | c1ccc(-c2cc3c(N4CCCCC4)ncnc3s2)cc1 | inactive: -9.44% | 
34 | Cc1ccccc1CNC(=O)c1[nH]c(C(F)(F)F)nc1-c1ccccc1 | inactive: -6.12% | 
35 | COc1ccc(C(=O)C[n+]2cc(-c3ccc(OC)cc3)n3c2CCCC3)cc1 | inactive: -13.4% and inactive: 1.33% | 
36 | Nc1cc2nc[nH]c2cc1N | inactive: 1.1% | 
37 | CCCn1c(=O)[nH]c2ccccc21 | inactive: -2.09% | 
38 | CCOC(=O)C1=C(C)NC(C)=C(C(=O)OCC)C1c1ccc(Br)o1 | inactive: 4.55% | 
39 | Cc1cc(S(=O)(=O)N2CCOCC2)ccc1F |  | active: 29.9 µM
40 | CCOC(=O)C1(S(=O)(=O)c2ccc(Cl)cc2)CCN(Cc2ccc(C)cc2)CC1 |  | inconclusive: 18.9 µM [inhibitor, partial curve]
41 | CC1C[N+](=C2C=C(N3CCOCC3)CC(C)(C)C2)CC(C)O1 (centres undefined) |  | inconclusive: 26.7 µM [inhibitor, partial curve]
42 | Cc1c(C(=O)OC(C)C)sc(NC(=O)c2cccnc2)c1C#N |  | inconclusive: 26.7 µM [inhibitor, partial curve]
43 | COCCCN1CC23C=CC(O2)C(C(=O)O)C3C1=O (centres undefined) |  | active: 26.7 µM
44 | CC(C)Cn1c(-c2ccco2)csc1=Nc1cccnc1 |  | inconclusive: 29.9 µM [inhibitor, single point]
45 | O=C(N/N=C\c1cccnc1)c1cc(-c2ccc(Cl)s2)[nH]n1 | inconclusive: -32.9% [inhibitor] | 
46 | COC(=O)c1cccc(CN2C(=O)SC(Nc3ccc(C)cc3)C2=O)c1 (centres undefined) |  | inconclusive: 23.8 µM [inhibitor, partial curve]
47 | Clc1ccc(/C=N/NC2=Nc3cccc4cccc2c34)cc1 | inactive: -4.14% | 
48 | CCc1nc(N2CCCC(C)C2)c2oc3ccccc3c2n1 (centres undefined) |  | active: 15 µM
49 | O=c1[nH]c2ccc(Br)cc2c(=O)o1 |  | inconclusive: 13.4 µM [inhibitor, partial curve]
50 | CC(Sc1n[nH]c(-c2ccccc2)n1)C(=O)c1c(N)n(C)c(=O)n(C)c1=O (centres undefined) | inactive: -7.88% | 

As a working copy, three of the compounds above:
Row | SMILES | max response, negative = inhibition | Potency
44 | CC(C)Cn1c(-c2ccco2)csc1=Nc1cccnc1 |  | inconclusive: 29.9 µM [inhibitor, single point]
45 | O=C(N/N=C\c1cccnc1)c1cc(-c2ccc(Cl)s2)[nH]n1 | inconclusive: -32.9% [inhibitor] | 
46 | COC(=O)c1cccc(CN2C(=O)SC(Nc3ccc(C)cc3)C2=O)c1 (centres undefined) |  | inconclusive: 23.8 µM [inhibitor, partial curve]

Going on with the list.

Row | SMILES | max response, negative = inhibition | Potency
51 | Cc1cc(C2C(=O)CC(=O)CC2c2ccccc2)on1 (centres undefined) |  | inconclusive: 21.2 µM [inhibitor, single point]
52 | O=C(NC(=S)NNC(=O)c1ccccc1F)c1cccnc1 |  | inconclusive: 29.9 µM [inhibitor, partial curve]
53 | Cc1c(NC(=O)c2cc(-c3ccc4c(c3)OCO4)on2)c(=O)n(-c2ccccc2)n1C |  | inconclusive: 26.7 µM [inhibitor, single point]
54 | CS(=O)(=O)c1cc([N+](=O)[O-])c(Sc2nc3ccccc3[nH]2)c([N+](=O)[O-])c1 |  | active: 1.5 µM
55 | COC(=O)c1ccc(CSc2ccccc2NC(=S)Nc2cccc(C(F)(F)F)c2)o1 |  | inconclusive: 33.6 µM [inhibitor, single point]
56 | COc1ccc(CCNC(=O)C(=O)NCCC2CCCCN2S(=O)(=O)c2cccs2)cc1 (centres undefined) | inconclusive: -2.44% [inhibitor] | 
57 | Nc1ccc(C(=O)NN2C(=O)[C@H](Cl)C2c2ccc(Cl)cc2)cc1 (some centres undefined) | inactive: -6.65% | 
58 | Cc1ccc2nc3c(cc2c1)CN(Cc1ccco1)C(=NCC1CCCO1)S3 (centres undefined) |  | active: 26.7 µM
59 | COc1ccc2oc(=O)c(C(=O)OCc3ccccc3)cc2c1 |  | inconclusive: 21.2 µM [inhibitor, partial curve]
60 | CC(C)[C@@H](NC(=O)OC(C)(C)C)c1cc(C(=O)c2c(-c3ccccc3)[nH]c3ccccc23)c(N)s1 |  | inconclusive: 26.7 µM [inhibitor, partial curve]
61 | CC1CCCN(CCC(=O)c2ccc(Br)cc2)C1 (centres undefined) |  | active: 3.36 µM
62 | CCCOc1ccc(/C=N/Nc2ccc(C(=O)O)cc2)c(OCCC)c1 |  | inconclusive: 26.7 µM [inhibitor, single point]
63 | CC(=O)Nc1ccc(SCC(=O)O)cc1 | inconclusive: -33.4% [inhibitor] | 
64 | O=C(Nc1nc(-c2ccc(S(=O)(=O)N3CCCC3)cc2)cs1)C1COc2ccccc2O1 (centres undefined) |  | inconclusive: 59.7 µM [inhibitor, partial curve]
65 | Fc1ccc(C2CC(c3ccc(F)cc3)n3ncnc3N2)cc1 (centres undefined) | inactive: -3.27% | 
66 | COC(=O)C1=C(C)N(CC2CC2)C(=O)N[C@H]1c1ccc(Br)cc1 | inactive: -1.5% | 
67 | COc1cc(/C=N/Nc2ccc3ccccc3c2)ccc1OC(=O)c1ccco1 |  | inconclusive: 18.9 µM [inhibitor, partial curve]
68 | CC1=NN(Cc2ccccc2)C(=O)C1C(c1ccccc1)C(C#N)C#N (centres undefined) |  | active: 23.8 µM
69 | Cn1c(=O)c2c(nc(CN3CCc4ccccc4C3)n2CCCO)n(C)c1=O | inactive: 2.22% | 
70 | CCOC(=O)Nc1ccc2c(c1)N(C(=O)CCN1CCOCC1)c1ccccc1S2=O (centres undefined) | inactive: -4.59% | 
71 | Brc1ccc(OCCN2CCOCC2)cc1 | inactive: -18.7% | 
72 | C=C(C)c1cccc(C(C)(C)NC(=O)N2CCC(C)CC2)c1 | inactive: 0.0913% | 
73 | COc1ccc(CNC(=O)Oc2ccccc2)cc1Cl |  | inconclusive: 29.9 µM [inhibitor, partial curve]
74 | Cc1cc(-c2ccc(Cl)cc2Cl)c(C#N)c(=O)[nH]1 |  | active: 16.8 µM
